The source of these data is patent publication US9612237B2, “Ritalinic acid immunoassay” (Randox Laboratories Limited, priority 2013, dated 2017).

This assay deals with antisera generated in response to immunogen of Example 11. Briefly: Competitive chemiluminescent biochip immunoassay, antisera raised against immunogen of Example 11, conjugate of Example 12. It counts as binding, sheep.

For `CN1CC[C@]23c4c5ccc(O)c4O[C@H]2[C@@H](O)C=C[C@H]3[C@H]1C5.O=S(=O)(O)O` [morphine sulphate], the “Concentration exhibiting no cross-reactivity” value came out at 10 µg/mL.
